The whole screen tested about 300,000 compounds, of which about 5,400 (1.8%) were called active. The shares of active, inactive and inconclusive entries below differ from those in the screen. Calls follow the shape of the full dose curve; tested in HEK293 cells. A potency beside an inconclusive call is a rough fit, not a confirmed value.
Assay: qHTS for inhibitors of binding or entry into cells for Marburg Virus
Details: Marburg virus pseudotyped entry inhibition, cell reporter; activity change, negative = inhibition: at 37.8 µM (top of the series) unless noted
For `O=C1/C(=C\c2ccc([N+](=O)[O-])cc2)N2CCC1CC2`, the Potency was inconclusive: 6.31 µM [activator, single point]. With `CN(C)c1cc(-c2cccc(C(F)(F)F)c2)oc(=O)c1Cl` the Potency was inconclusive: 1.12 µM [inhibitor, single point]. In the case of `CCC(C)NS(=O)(=O)c1ccc(NC(=O)c2cccs2)cc1` (stereo unspecified), the “activity change, negative = inhibition” value is reported as inactive: 12.3% [at 46.1 µM]. With `COc1ccc(C)cc1S(=O)(=O)NCC(c1cccnc1)N1CCc2ccccc2C1` (stereo unspecified) the Potency was inconclusive: 35.5 µM [inhibitor, single point]. With `CCc1ccccc1NC(=O)NC1CCCCC1` the “activity change, negative = inhibition” value was inactive: 31.2%. For `COc1ccc(OCCn2c(C)nc3cc(C)c(C)cc32)cc1`, the “activity change, negative = inhibition” value was inactive: 5.04% [at 46.1 µM]. In the case of `O=C(CN1C(=O)C2CC=CCC2C1=O)Nc1nc2ccccc2[nH]1` (stereo unspecified), the “activity change, negative = inhibition” value is reported as inactive: 3.78%. With `COc1cc2[nH]c3c(N4CCN(c5ccc(Cl)cc5)CC4)ncnc3c2cc1OC` the Potency was inconclusive: 9.2 µM [inhibitor, partial curve, poor fit]. For `N#CC(=C(O)COC(=O)CCC1CCCCC1)c1nc2ccccc2[nH]1`, the “activity change, negative = inhibition” value was inactive: -5.61%. For `Cc1nc(CSc2ccc(Cl)cc2)cc(NCc2ccccc2)n1`, the Potency was inconclusive: 8.91 µM [activator, partial curve, poor fit]. With `CN(CCOc1ccc(Cl)cc1)C(=O)c1cc([N+](=O)[O-])ccc1N1CCOCC1` the Potency was inconclusive: 35.5 µM [inhibitor, single point]. In the case of `CC1CCCN1CCC(C(N)=O)(c1ccccc1)c1ccccc1` (stereo unspecified), the Potency is reported as inconclusive: 2.24 µM [inhibitor, full curve, poor fit]. With `Clc1ccc(Cn2ncc3c(NCc4ccco4)ncnc32)c(Cl)c1` the Potency was inconclusive: 35.5 µM [inhibitor, single point]. In the case of `Cc1cc(OCCn2cnc3ccccc3c2=O)cc(C(C)C)c1`, the “activity change, negative = inhibition” value is reported as inactive: 15.3%. With `O=c1[nH]c(SCc2c(Cl)cccc2Cl)nc2ccccc12` the “activity change, negative = inhibition” value was inactive: -16.5% [at 46.1 µM]. For `COc1ccccc1NS(=O)(=O)c1cc(N2Cc3ccccc3C2=N)ccc1N1CCOCC1`, the Potency was active: 7.08 µM. For `c1ccc2c(c1)OCCOCCOc1ccccc1OCCOCCO2`, the Potency was inconclusive: 20.6 µM [inhibitor, single point]. With `Cc1cccc(NC(=O)CN2C(=O)N/C(=C\c3ccc(N4CCOCC4)cc3)C2=O)c1` the “activity change, negative = inhibition” value was inactive: 28.1%. In the case of `O=C(NCC(c1ccco1)N1CCc2ccccc2C1)c1cccc(Br)c1` (stereo unspecified), the “activity change, negative = inhibition” value is reported as inactive: 3.81%. In the case of `COc1cc(CC(=O)Nc2ccc(S(=O)(=O)Nc3ncccn3)cc2)cc(OC)c1OC`, the Potency is reported as inconclusive: 25.9 µM [activator, single point]. With `CCS(=O)(=O)NCc1cn2c(C)csc2n1` the Potency was inconclusive: 15.8 µM [activator, partial curve, poor fit]. For `Cc1nc2c(c(=O)c3ccccc3n2C)c(=O)n1C1CCCCCC1`, the Potency was inconclusive: 5.62 µM [inhibitor, single point]. With `Cc1cccc(/C(N)=N/OC(=O)c2ccc(Cl)cc2Cl)c1` the Potency was inconclusive: 11.2 µM [inhibitor, partial curve, poor fit]. In the case of `COc1cccc(NC(=O)Nc2ccccc2C(N)=O)c1`, the Potency is reported as inconclusive: 3.16 µM [inhibitor, single point]. For `CC1=C(C)CC(C(=O)Nc2cccc(Cl)c2)C(C(=O)O)C1` (stereo unspecified), the “activity change, negative = inhibition” value was inactive: -1.77%. For `CCOC(=O)c1ccccc1NC(=O)n1ncc2cc(Cl)ccc21`, the “activity change, negative = inhibition” value was inactive: 7.48% [at 46.1 µM]. For `Cc1ccc(S(=O)(=O)N2CCCC2CNC(=O)C(=O)Nc2ccccc2)cc1` (stereo unspecified), the Potency was inconclusive: 1.26 µM [inhibitor, single point]. For `COc1cccc(/C=N/Nc2ncccc2[N+](=O)[O-])c1OC`, the Potency was active: 1.58 µM. For `CCOCc1nnc(NC(=O)c2ccc(OC)cc2)s1`, the “activity change, negative = inhibition” value was inactive: -0.496%. With `O=C1/C(=C/c2ccccc2F)SC(=S)N1CCC(=O)N1CCCCC1CCO` (stereo unspecified) the Potency was inconclusive: 5.62 µM [inhibitor, single point]. With `COc1ccc(C(=O)C2CCN(CC(=O)Nc3ccc(OC)cc3OC)CC2)cc1` the Potency was inconclusive: 14.1 µM [inhibitor, single point]. With `Cc1cc(C)cc(OCC(=O)NNC(=O)CN2C(=O)c3ccccc3C2=O)c1` the Potency was inconclusive: 0.316 µM [activator, partial curve, poor fit]. For `COc1ccccc1CNC(=O)CSc1nc(=O)n(Cc2ccncc2)c2c1CCC2`, the “activity change, negative = inhibition” value was inactive: 0.122%. With `S=C(NCC1CCCO1)Nc1cccc(Cl)c1` (stereo unspecified) the “activity change, negative = inhibition” value was inactive: 7.34%. With `CC(=O)c1c(C)[nH]c(C(=O)OCc2nnc(-c3ccc([N+](=O)[O-])cc3)o2)c1C` the Potency was inconclusive: 17.8 µM [inhibitor, single point]. For `CCN(CC)S(=O)(=O)c1ccc(NC(=O)COC(=O)CNS(=O)(=O)/C=C/c2ccccc2)cc1`, the Potency was inconclusive: 3.55 µM [inhibitor, single point]. In the case of `COCCNC(=O)c1cc2sc3ccccc3c2s1`, the Potency is reported as inconclusive: 3.98 µM [activator, full curve, poor fit]. In the case of `O=C(O)c1cn(-c2ccc(N3CCCC3)c(F)c2)c2c(F)c(F)c(F)cc2c1=O`, the “activity change, negative = inhibition” value is reported as inactive: 12% [at 46.1 µM]. For `O=C(C=Cc1ccccc1)Nc1cccc(C(=O)NCCc2ccccc2)c1`, the Potency was inconclusive: 0.445 µM [activator, full curve, poor fit]. With `Cc1cc(C)cc(NC(=O)C2CCCN(c3ncccn3)C2)c1` (stereo unspecified) the “activity change, negative = inhibition” value was inactive: 8.11% [at 46.1 µM]. In the case of `COc1ccc(OC)c(-c2cc(C(=O)Nc3c(C)nn(Cc4ccccc4)c3C)no2)c1`, the Potency is reported as inconclusive: 3.66 µM [inhibitor, partial curve, poor fit]. For `Cc1ccc(N(CC(=O)O)C2SC(=O)NC2=O)cc1` (stereo unspecified), the Potency was inconclusive: 35.5 µM [activator, single point]. For `CCC(C)(C)NC(=O)C(c1ccc(OC)cc1)N(C(=O)CCC(=O)Nc1cc(C)on1)c1cccc(F)c1` (stereo unspecified), the Potency was inconclusive: 3.16 µM [inhibitor, single point]. For `COc1ccc(NC(=O)CC2C(=O)N(c3ccc(F)cc3)C(=O)N2Cc2ccc3c(c2)OCO3)cc1` (stereo unspecified), the “activity change, negative = inhibition” value was inactive: 5.41% [at 46.1 µM]. For `O=C(NCc1ccccn1)c1cccn1-c1ncc(C(F)(F)F)cc1Cl`, the Potency was inconclusive: 1.41 µM [inhibitor, partial curve, poor fit]. In the case of `COc1ccccc1C(=O)N1CCN(Cc2nc3cc([N+](=O)[O-])ccc3n2C)CC1`, the “activity change, negative = inhibition” value is reported as inactive: 5.3%.

Source: PubChem BioAssay AID540276 (National Center for Advancing Translational Sciences (NCATS), 2011)
% is scaled to controls: 0 for no effect and ±100 for the full control effect; potency is read from the fitted curve at half-maximal effect.
